The values below come from WO2009138494A2 (dated 2009).

By UniProt entry, the sequences of proteins in these tests, tags left out. Where a name states a change or a piece, a line headed by the entry shows the natural chain unless it says otherwise. Residues count along the entry.
UniProt O00206: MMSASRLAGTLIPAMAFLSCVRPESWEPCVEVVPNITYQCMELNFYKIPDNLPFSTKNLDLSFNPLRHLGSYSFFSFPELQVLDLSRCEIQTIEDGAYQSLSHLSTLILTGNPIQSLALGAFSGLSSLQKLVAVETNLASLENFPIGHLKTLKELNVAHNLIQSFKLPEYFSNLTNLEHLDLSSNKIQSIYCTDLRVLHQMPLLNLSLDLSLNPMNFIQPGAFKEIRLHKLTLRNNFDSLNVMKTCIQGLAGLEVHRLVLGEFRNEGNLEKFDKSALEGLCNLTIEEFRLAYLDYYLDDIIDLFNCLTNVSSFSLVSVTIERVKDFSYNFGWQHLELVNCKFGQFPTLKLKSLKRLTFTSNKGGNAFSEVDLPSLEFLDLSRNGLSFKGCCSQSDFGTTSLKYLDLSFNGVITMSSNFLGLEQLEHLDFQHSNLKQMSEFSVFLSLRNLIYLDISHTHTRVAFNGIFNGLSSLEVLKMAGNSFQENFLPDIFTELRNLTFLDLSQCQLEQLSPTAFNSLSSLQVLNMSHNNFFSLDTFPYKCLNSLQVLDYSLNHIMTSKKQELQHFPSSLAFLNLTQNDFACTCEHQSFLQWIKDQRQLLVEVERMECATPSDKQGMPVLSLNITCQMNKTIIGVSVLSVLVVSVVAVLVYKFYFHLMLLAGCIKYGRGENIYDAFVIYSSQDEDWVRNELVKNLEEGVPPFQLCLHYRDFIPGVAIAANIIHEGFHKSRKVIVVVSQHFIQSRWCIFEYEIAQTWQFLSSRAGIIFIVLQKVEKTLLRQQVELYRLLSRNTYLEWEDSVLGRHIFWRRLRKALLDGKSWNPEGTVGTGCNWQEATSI
UniProt Q9Y6Y9: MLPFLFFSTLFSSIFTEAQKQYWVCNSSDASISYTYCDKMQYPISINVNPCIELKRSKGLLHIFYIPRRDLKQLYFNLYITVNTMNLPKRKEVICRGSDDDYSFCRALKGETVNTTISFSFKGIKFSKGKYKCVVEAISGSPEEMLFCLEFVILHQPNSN
UniProt Q99MB1, residues 26-705: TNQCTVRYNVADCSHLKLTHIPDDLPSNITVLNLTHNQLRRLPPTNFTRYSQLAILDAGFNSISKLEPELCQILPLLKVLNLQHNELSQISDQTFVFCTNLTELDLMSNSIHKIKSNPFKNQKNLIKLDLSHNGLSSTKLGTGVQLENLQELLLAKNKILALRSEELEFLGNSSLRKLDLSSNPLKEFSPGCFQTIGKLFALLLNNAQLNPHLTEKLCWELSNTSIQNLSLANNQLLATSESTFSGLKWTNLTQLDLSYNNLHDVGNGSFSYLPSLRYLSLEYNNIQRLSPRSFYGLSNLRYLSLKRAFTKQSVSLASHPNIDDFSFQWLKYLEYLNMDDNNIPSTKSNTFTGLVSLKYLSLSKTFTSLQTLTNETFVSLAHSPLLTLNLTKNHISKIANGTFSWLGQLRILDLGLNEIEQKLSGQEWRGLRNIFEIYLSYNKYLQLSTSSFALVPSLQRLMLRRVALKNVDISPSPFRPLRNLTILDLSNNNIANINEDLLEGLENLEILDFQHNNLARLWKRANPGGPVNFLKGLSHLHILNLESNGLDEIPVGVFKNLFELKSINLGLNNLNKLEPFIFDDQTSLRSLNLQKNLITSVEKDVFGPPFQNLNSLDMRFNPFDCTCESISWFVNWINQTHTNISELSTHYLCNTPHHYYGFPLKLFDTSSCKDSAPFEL
UniProt O15455, residues 27-700: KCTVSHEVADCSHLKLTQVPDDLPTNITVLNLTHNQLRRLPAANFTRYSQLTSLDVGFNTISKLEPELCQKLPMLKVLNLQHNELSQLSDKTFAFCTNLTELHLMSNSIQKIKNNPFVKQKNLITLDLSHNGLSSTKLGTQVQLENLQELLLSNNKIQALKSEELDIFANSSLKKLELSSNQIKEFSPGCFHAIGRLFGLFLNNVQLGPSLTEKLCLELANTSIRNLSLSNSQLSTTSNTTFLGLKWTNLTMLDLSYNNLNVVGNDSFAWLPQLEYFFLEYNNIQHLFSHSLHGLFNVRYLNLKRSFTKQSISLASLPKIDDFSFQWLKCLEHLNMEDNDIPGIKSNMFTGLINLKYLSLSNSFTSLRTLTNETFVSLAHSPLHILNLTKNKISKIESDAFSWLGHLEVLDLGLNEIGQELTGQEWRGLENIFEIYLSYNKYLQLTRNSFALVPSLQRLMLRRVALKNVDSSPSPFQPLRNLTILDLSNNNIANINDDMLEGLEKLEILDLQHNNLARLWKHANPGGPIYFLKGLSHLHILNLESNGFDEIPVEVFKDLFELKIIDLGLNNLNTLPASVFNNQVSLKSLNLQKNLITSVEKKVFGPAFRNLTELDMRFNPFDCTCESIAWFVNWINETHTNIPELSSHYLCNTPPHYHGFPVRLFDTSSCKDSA

Common to all, as to assay: ELISA: TLR coated at 2 ug/ml, periplasmic extract of the clone, anti-VHH detection, OD against no-Nanobody control
The target in test [1] is recombinant human TLR4/MD2 (rhTLR4/MD2), R&D Systems cat no: 3146-TM/CF (human) (UniProt O00206+Q9Y6Y9).
Test [2] concerns the target recombinant murine TLR3, R&D Systems cat no: 3005-TR (murine) (UniProt Q99MB1).
Test [3] addresses recombinant human TLR3, R&D Systems cat no: 1487-TR (human) (UniProt O15455).

Residue numbers refer to the chain shown, from its start. Results are given in words; binding and its absence hold for the method and conditions named. Some binding calls cover weakened binding; strength is not graded here.

B1: 107-B9 (VHH, not shown: small tags and cut ends)
VHH: EVQLVESGGGLVQPGGSLRLSCAASGSIFSINDMGWFRQAPGKEREHAALIRFKDGSIYYADSVKGRFTISRDNAKNTVYLQMNSLKPEDTAVYYCAAKTGTSFVYWGQGTQVTVSS
Turning to B1, the binding result in test [1] is given as “binds”.

B2: 107-D8 (VHH, not shown: small tags and cut ends)
VHH: B1 VHH with A48V, F53I, S103P
Turning to B2, the binding result in test [1] is “binds”.

B3: 107-F8 (VHH, not shown: small tags and cut ends)
VHH: B1 VHH with A48V, F53I, S103P
For B3, the binding result in test [1] is given as “binds”.

B4: 107-F12 (VHH, not shown: small tags and cut ends)
VHH: B1 VHH
For B4, in test [1], the binding entry is given as “binds”.

B5: 132-D4 (VHH, not shown: small tags and cut ends)
VHH: EVQLVESGGGLVQAGGSLRLSCVLSGSSVSIGAMGWYRQAPGKQRDLVAEIYPSGSTIYADSVKGRFTISRDNAKNTVYLQMKSLKPEDTAVYYCNVVRWGADFWGQGTQVTVSS
For B5, in test [2], the binding result is “binds”.

B6: 132-E3 (VHH, not shown: small tags and cut ends)
VHH: B5 VHH
As to B6, the binding result in test [2] is recorded as “binds”.

B7: 107-A1 (VHH, not shown: small tags and cut ends)
VHH: EVQLVESGGGLVQAGESLRLSCVASGISISTEIMGWWRQAPGKQGESVAILKSDGTTYYPDSVKGRFAISRDNAKNTVYLQMSSLKLEDTGVYYCIIAGRGRGQGTQVTVSS
In the case of B7, the binding result in test [1] is given as “binds”.

B8: 107-E1 (VHH, not shown: small tags and cut ends)
VHH: B7 VHH with E16G, S28T, I33V, W37Y, L51I, T56S, S83N
Consider B8, for which the binding entry in test [1] was “binds”.

B9: 107-G6 (VHH, not shown: small tags and cut ends)
VHH: B7 VHH
Consider B9, for which the binding result in test [1] is “binds”.

B10: 133-D1 (VHH, not shown: small tags and cut ends)
VHH: B7 VHH with E1Z, S30N, E32N, I33V, W37Y, Q44E, L51I, S53T, T56S, S83N
For the molecule B10, the binding result in test [1] is given as “binds”.

B11: 133-C5 (VHH, not shown: small tags and cut ends)
VHH: B7 VHH with E16G, S28T, I33V, W37Y, L51I, T56S, S83N
As for B11, the binding result in test [1] was “binds”.

B12: 107-D6 (VHH, not shown: small tags and cut ends)
VHH: B7 VHH with W37Y, L51V, T56S, A68G, S83N, L87V, I97M
As to B12, in test [1], the binding entry is listed as “binds”.

B13: 133-B1 (VHH, not shown: small tags and cut ends)
VHH: B7 VHH with W37Y, L51V, T56S, A68G, S83N, L87V, I97M
Regarding B13, the binding result in test [1] is “binds”.

B14: 132-F10 (VHH, not shown: small tags and cut ends)
VHH: EVQLVESGGGLVQAGGSLRLSCAASGNTFSFNVMGWYRQAPGKQRELVTIIBNGGTTNYADSVKGRFTISRDNAKNTVYLQMNSLKPEDTARYYCHARRGGTLYILGDSNYWGQGTQVTVSS
Consider B14, for which, in test [3], the binding entry is reported as “binds”.

B15: 132-B10 (VHH, not shown: small tags and cut ends)
VHH: B14 VHH with B52D, N58D, D72B, Y94H, I105T, D108E, T116I
For B15, the binding entry in test [3] is “binds”.

B16: 132-C2 (VHH, not shown: small tags and cut ends)
VHH: EVQLVESGGGLVQAGGSLRLSCAASGSIFSIKDMRWFRQAPGKHRELVARISSGGATHYADPVKGRFTISRDNAKNTGSLQMNSLKPEDTAVYYCNADDSSAGWPPRNYWGQGTQVTVSS
With B16, in test [2], the binding entry is listed as “binds”.

B17: 132-G4 (VHH, not shown: small tags and cut ends)
VHH: B16 VHH
As for B17, the binding result in test [2] is “binds”.
